For 21 substances, conjugation yield, step yield and difficulty met results are on record in patent US20150023989A1 (SEATTLE GENETICS, INC., priority 2011, published 2015).

The nature of one data set: general procedure: solution-phase peptide synthesis; HATU/N,N-diisopropylethylamine; EDC/HOBt/N,N-diisopropylethylamine. The note with it: conjugation step, over 2 stages, trifluoroacetate.
Consider “N-{4-[2-(6-aminohexanoyl)hydrazino]-4-oxobutyl}-N-methyl-L-valyl-N-[(3R,4S,5S)-1-{(2S)-2-[(1R,2R)-3-{[(2S)-1-amino-3-(1H-indol-3-yl)-1-oxopropan-2-yl]amino}-1-methoxy-2-methyl-3-oxopropyl]pyrrolidin-1-yl}-3-methoxy-5-methyl-1-oxoheptan-4-yl]”, for which the conjugation yield was 68% of theory over 2 stages.

Substance “N-(2-{2-[2-(2-aminoethoxy)ethoxy]ethoxy}ethyl)-N-methyl-L-valyl-N-[(3R,4S,5S)-3-methoxy-1-{(2S)-2-[(1R,2R)-1-methoxy-2-methyl-3-{[(1S,2R)-1-(1,2-oxazinan-2-ylcarbonyl)-2-phenyl cyclopropyl]amino}-3-oxopropyl]pyrrolidin-1-yl}-5-methyl-1-oxoheptan-4-yl]-N-methyl-L-valinamide” returned a conjugation yield of 66%.

The same data set, now with this note: conjugation step, trifluoroacetate.
“N-[1-(2,5-dioxo-2,5-dihydro-1H-pyrrol-1-yl)-12,15-dioxo-3,6,9-trioxa-13,14-diazaoctadecan-18-yl]-N-methyl-L-valyl-N-[(3R,4S,5S)-3-methoxy-1-{(2S)-2-[(1R,2R)-1-methoxy-2-methyl-3-{[(2S)-1-(1,2-oxazinan-2-yl)-1-oxo-3-phenylpropan-2-yl]amino}-3-oxopropyl]pyrrolidin-1-yl}-5-methyl-1-oxoheptan-4-yl]-N-me” had a conjugation yield of 51%.

Substance “N-[4-({1-[4-(2,5-dioxo-2,5-dihydro-1H-pyrrol-1-yl)butanoyl]piperidin-4-yl}oxy)-4-oxobutyl]-N-methyl-L-valyl-N-[(3R,4S,5S)-3-methoxy-1-{(2S)-2-[(1R,2R)-1-methoxy-2-methyl-3-{[(1S,2R)-1-(1,2-oxazinan-2-ylcarbonyl)-2-phenylcyclopropyl]amino}-3-oxopropyl]pyrrolidin-1-yl}-5-methyl-1-oxoheptan-4-yl]-N-met” displayed a conjugation yield of 34%.

Regarding “N-(6-{[4-(2,5-dioxo-2,5-dihydro-1H-pyrrol-1-yl)butanoyl]amino}hexyl)-N-methyl-L-valyl-N-[(3R,4S,5S)-3-methoxy-1-{(2S)-2-[(1R,2R)-1-methoxy-2-methyl-3-{[(2S,3S)-1-(1,2-oxazinan-2-yl)-1-oxo-3-phenylbutan-2-yl]amino}-3-oxopropyl]pyrrolidin-1-yl}-5-methyl-1-oxoheptan-4-yl]-N-methyl-L-valinamide”, the conjugation yield is 56%.

In the case of “N-(4-{2-[6-(2,5-dioxo-2,5-dihydro-1H-pyrrol-1-yl)hexanoyl]hydrazino}-4-oxobutyl)-N-methyl-L-valyl-N-[(3R,4S,5S)-1-{(2S)-2-[(1R,2R)-3-{[(1S,2R)-1-(ethoxycarbonyl)-2-phenylcyclopropyl]amino}-1-methoxy-2-methyl-3-oxopropyl]pyrrolidin-1-yl}-3-methoxy-5-methyl-1-oxoheptan-4-yl]-N-methyl-L-valinamide”, the conjugation yield worked out at 37%.

As to “N-(4-{2-[6-(2,5-dioxo-2,5-dihydro-1H-pyrrol-1-yl)hexanoyl]hydrazino}-4-oxobutyl)-N-methyl-L-valyl-N-[(3R,4S,5S)-1-{(2S)-2-[(1R,2R)-3-{[(2S)-1-(benzylamino)-3-(1H-indol-3-yl)-1-oxopropan-2-yl]amino}-1-methoxy-2-methyl-3-oxopropyl]pyrrolidin-1-yl}-3-methoxy-5-methyl-1-oxoheptan-4-yl]-N-methyl-L-valina”, the conjugation yield came to 52%.

“N-(4-{2-[6-(2,5-dioxo-2,5-dihydro-1H-pyrrol-1-yl)hexanoyl]hydrazino}-4-oxobutyl)-N-methyl-L-valyl-N-[(3R,4S,5S)-1-{(2S)-2-[(1R,2R)-3-{[(2S)-1-amino-3-(1H-indol-3-yl)-1-oxopropan-2-yl]amino}-1-methoxy-2-methyl-3-oxopropyl]pyrrolidin-1-yl}-3-methoxy-5-methyl-1-oxoheptan-4-yl]-N-methyl-L-valinamide” had a conjugation yield of 33%.

“N-(4-{2-[6-(2,5-dioxo-2,5-dihydro-1H-pyrrol-1-yl)hexanoyl]hydrazino}-4-oxobutyl)-N-methyl-L-valyl-N-[(3R,4S,5S)-1-{(2S)-2-[(1R,2R)-3-({(2S)-1-[benzyl(methyl)amino]-1-oxo-3-phenylpropan-2-yl}amino)-1-methoxy-2-methyl-3-oxopropyl]pyrrolidin-1-yl}-3-methoxy-5-methyl-1-oxoheptan-4-yl]-N-methyl-L-valinam” came in with a conjugation yield of 15%.

As for “N-(4-{2-[6-(2,5-dioxo-2,5-dihydro-1H-pyrrol-1-yl)hexanoyl]hydrazino}-4-oxobutyl)-N-methyl-L-valyl-N-[(3R,4S,5S)-1-{(2S)-2-[(1R,2R)-3-{[(2S)-1-(benzyloxy)-3-(1H-indol-3-yl)-1-oxopropan-2-yl]amino}-1-methoxy-2-methyl-3-oxopropyl]pyrrolidin-1-yl}-3-methoxy-5-methyl-1-oxoheptan-4-yl]-N-methyl-L-valinami”, the conjugation yield is reported as 58%.

The substance “N-(6-{2-[6-(2,5-dioxo-2,5-dihydro-1H-pyrrol-1-yl)hexanoyl]hydrazino}-6-oxohexyl)-N-methyl-L-valyl-N-[(3R,4S,5S)-1-{(2S)-2-[(1R,2R)-3-{[(2S)-1-amino-3-(1H-indol-3-yl)-1-oxopropan-2-yl]amino}-1-methoxy-2-methyl-3-oxopropyl]pyrrolidin-1-yl}-3-methoxy-5-methyl-1-oxoheptan-4-yl]-N-methyl-L-valinamide” gave a conjugation yield of 16%.

“N-(4-{2-[6-(2,5-dioxo-2,5-dihydro-1H-pyrrol-1-yl)hexanoyl]hydrazino}-4-oxobutyl)-N-methyl-L-valyl-N-[(3R,4S,5S)-1-{(2S)-2-[(1R,2R)-3-{[(2S)-1-(benzylamino)-1-oxo-3-phenylpropan-2-yl]amino}-1-methoxy-2-methyl-3-oxopropyl]pyrrolidin-1-yl}-3-methoxy-5-methyl-1-oxoheptan-4-yl]-N-methyl-L-valinamide” showed a conjugation yield of 53%.

The same data set, now with this note: late stage modification step, over 2 stages, trifluoroacetate.
As for “N-(6-aminohexyl)-N-methyl-L-valyl-N-[(3R,4S,5S)-3-methoxy-1-{(2S)-2-[(1R,2R)-1-methoxy-2-methyl-3-{[(2S,3S)-1-(1,2-oxazinan-2-yl)-1-oxo-3-phenylbutan-2-yl]amino}-3-oxopropyl]pyrrolidin-1-yl}-5-methyl-1-oxoheptan-4-yl]-N-methyl-L-valinamide”, the step yield is on record as 63%.

Still in this data set, the particulars now being: late stage modification step, trifluoroacetate.
In turn, “N-[6-(2,5-dioxo-2,5-dihydro-1H-pyrrol-1-yl)hexyl]-N-methyl-L-valyl-N-[(3R,4S,5S)-1-{(2S)-2-[(1R,2R)-3-{[(1S,2R)-1-(1,4-dihydro-3H-2,3-benzoxazin-3-ylcarbonyl)-2-phenylcyclopropyl]amino}-1-methoxy-2-methyl-3-oxopropyl]pyrrolidin-1-yl}-3-methoxy-5-methyl-1-oxoheptan-4-yl]-N-methyl-L-valinamide” displayed a step yield of 21%.

Take “N-methyl-L-valyl-N-[(3R,4S,5S)-1-{(2S)-2-[(1R,2R)-3-{[(1S,2R)-1-(1,4-dihydro-3H-2,3-benzoxazin-3-ylcarbonyl)-2-phenylcyclopropyl]amino}-1-methoxy-2-methyl-3-oxopropyl]pyrrolidin-1-yl}-3-methoxy-5-methyl-1-oxoheptan-4-yl]-N-methyl-L-valinamide trifluoroacetate”: the step yield stood at 92%.

“N-(2-{2-[2-(2-carboxyethoxy)ethoxy]ethoxy}ethyl)-N-methyl-L-valyl-N-[(3R,4S,5S)-1-{(2S)-2-[(1R,2R)-3-{[(2S)-1-amino-3-(1H-indol-3-yl)-1-oxopropan-2-yl]amino}-1-methoxy-2-methyl-3-oxopropyl]pyrrolidin-1-yl}-3-methoxy-5-methyl-1-oxoheptan-4-yl]-N-methyl-L-valinamide”: the step yield was 85%.

On to “N-{2-[2-(2-{3-[(2,5-dioxopyrrolidin-1-yl)oxy]-3-oxopropoxy}ethoxy)ethoxy]ethyl}-N-methyl-L-valyl-N-[(3R,4S,5S)-1-{(2S)-2-[(1R,2R)-3-{[(2S)-1-amino-3-(1H-indol-3-yl)-1-oxopropan-2-yl]amino}-1-methoxy-2-methyl-3-oxopropyl]pyrrolidin-1-yl}-3-methoxy-5-methyl-1-oxoheptan-4-yl]-N-methyl-L-valinamide”, for which the step yield was found to be 64%.

Substance “N-[2-(2-{2-[2-(2,5-dioxo-2,5-dihydro-1H-pyrrol-1-yl)ethoxy]ethoxy}ethoxy)ethyl]-N-methyl-L-valyl-N-[(3R,4S,5S)-3-methoxy-1-{(2S)-2-[(1R,2R)-1-methoxy-2-methyl-3-{[(1S,2R)-1-(1,2-oxazinan-2-ylcarbonyl)-2-phenylcyclopropyl]amino}-3-oxopropyl]pyrrolidin-1-yl}-5-methyl-1-oxoheptan-4-yl]-N-methyl-L-valin” came in with a step yield of 23%.

“N-{6-[(2,5-dioxopyrrolidin-1-yl)oxy]-6-oxohexyl}-N-methyl-L-valyl-N-[(3R,4S,5S)-3-methoxy-1-{(2S)-2-[(1R,2R)-1-methoxy-2-methyl-3-{[(1S,2R)-1-(1,2-oxazinan-2-ylcarbonyl)-2-phenylcyclopropyl]amino}-3-oxopropyl]pyrrolidin-1-yl}-5-methyl-1-oxoheptan-4-yl]-N-methyl-L-valinamide” registered a step yield of 41%.

Substance “N-[3-(2,5-dioxo-2,5-dihydro-1H-pyrrol-1-yl)propyl]-N-methyl-L-valyl-N-[(3R,4S,5S)-3-methoxy-1-{(2S)-2-[(1R,2R)-1-methoxy-2-methyl-3-{[(1S,2R)-1-(1,2-oxazinan-2-ylcarbonyl)-2-phenyl cyclopropyl]amino}-3-oxopropyl]pyrrolidin-1-yl}-5-methyl-1-oxoheptan-4-yl]-N-methyl-L-valinamide” gave a step yield of 32%.

For the substance “N-[4-({(2R)-1-[(2,5-dioxopyrrolidin-1-yl)oxy]-4-methyl-1-oxopentan-2-yl}amino)-4-oxobutyl]-N-methyl-L-valyl-N-[(3R,4S,5S)-1-{(2S)-2-[(1R,2R)-3-{[(2S)-1-(benzylamino)-1-oxo-3-phenylpropan-2-yl]amino}-1-methoxy-2-methyl-3-oxopropyl]pyrrolidin-1-yl}-3-methoxy-5-methyl-1-oxoheptan-4-yl]-N-methyl-L-valin”, the difficulty met result is “some of which was hydrolysed to the reactant”.
